Measurements as given in PubChem BioAssay AID588497 (NMMLSC, 2011).
The campaign covered roughly 360,000 compounds. About 780 (0.22%) were called active. Inconclusive means that the source gave no clear call. Such entries were picked first, then a sample of the others. Rule as the data show it: active = inhibition above about 35% (passing the limit was not always enough); inconclusive = no clear call, values can overlap the other calls.

tested on: Botulinum neurotoxin type F light chain protease (Clostridium botulinum); assay: BoNT/F light chain protease inhibitors, primary screen, biochemical, flow cytometry, MLPCN library (AID 588497); conditions: Multiplex microsphere protease cleavage assay, at 10 µM, hits give high values; also: plate controls were buffer without enzyme for full effect and enzyme alone for no effect

SMILES	inhibition
CN(C)c1ccc(CN(C(=O)/C=C/c2ccco2)C2CCS(=O)(=O)C2)cc1 (stereo not given)	inconclusive: -58%
CCN(C(=O)c1cc2ccccc2oc1=O)c1ccccc1	inactive: -3.6%
CCOc1ccc(C(C)(N)C(=O)O)cc1 (stereo not given)	inactive: -0.1%
O=C(Nc1cccnc1)c1cc(Cl)ccc1Cl	inconclusive: -11.3%
Oc1cc(-n2cccn2)c(O)cc1-n1cccn1	inactive: -10.7%
Cc1cc(C(=O)CCC(=O)NNC(=O)c2ccccc2O)c(C)s1	inconclusive: -19.9%
O=C(COC(=O)Cc1ccc(Br)cc1)NC12CC3CC(CC(C3)C1)C2	inconclusive: 5.6%
Cc1ccc(/C=N/NC(=O)C(O)c2ccccc2)o1 (stereo not given)	inconclusive: -12.6%
COc1ccccc1N1CCN(C(=O)c2oc3cc(C)c(C)cc3c2C)CC1	inconclusive: -27%
COC(=O)C1=C(N)OC2=C(C(=O)CC(C)(C)C2)C1c1cc2c(cc1Cl)OCO2 (stereo not given)	inconclusive: 24.2%
Cc1ccc(NC(=O)c2ccsc2)cc1NS(C)(=O)=O	inconclusive: 8.5%
O=C(O)c1cccc(N=C2NC(=O)C(CO)(CO)S2)c1	inconclusive: -9.1%
Cc1ccc(NC(=O)C2C3CCC(O3)C2C(=O)O)c(Br)c1 (stereo not given)	inconclusive: -0.5%
O=C1N/C(=N\c2ccccn2)SC1Cc1ccccc1Cl (stereo not given)	inconclusive: 197%
Cn1c(=O)c2c(nc(NCC(O)CO)n2CCc2ccccc2)n(C)c1=O (stereo not given)	inconclusive: 24.5%
CCn1c(=S)sc2c(=O)[nH]c(SCC(=O)Nc3cc(OC)ccc3OC)nc21	inactive: 12.2%
CC1CN(CCOc2cccc(Oc3ccccc3)c2)CC(C)O1 (stereo not given)	inconclusive: -24.7%
Cn1c(SCc2ccc(Cl)cc2)nnc1-c1ccc2nonc2c1	inconclusive: 24.5%
COc1cc2c(cc1OC)CN(C(=O)/C=C/c1ccccc1[N+](=O)[O-])CC2	inactive: 9.5%
Cc1ccc(-c2ccnc3[nH]n(-c4ccccc4)c(=O)c23)cc1	inconclusive: -0.3%
Cn1cnc([N+](=O)[O-])c1SCCO	inconclusive: -0.6%
O=C(Nc1ccc(F)cc1)Nc1nnc(Cc2ccccc2)s1	inconclusive: -1.3%
CC1CC(C)CN(S(=O)(=O)c2ccc(C(=O)Nc3nnc(-c4cccs4)o3)cc2)C1 (stereo not given)	inconclusive: -0.4%
COc1cccc(C(O)c2nc(-c3cccc(C(C)C)c3)cs2)c1 (stereo not given)	inactive: -2.4%

SMILES	inhibition
CCN(CC(=O)NCC1CCCO1)S(=O)(=O)c1ccc2ccccc2c1 (stereo not given)	inconclusive: 14.7%
COc1cccc(N(C(=O)CNC(=O)c2ccco2)C(C(=O)NC2CCCCC2)c2ccncc2)c1 (stereo not given)	inconclusive: 8.5%
Cc1c(C(=O)N2CCN(C3CCS(=O)(=O)C3)CC2)oc2ccc(Cl)cc12 (stereo not given)	inconclusive: -4.5%
c1ccc(-c2ccccn2)nc1	inactive: -6.2%
COc1ccc(NC(=O)CSc2nc(N)c3cc4c(nc3n2)CC(C)(C)OC4)cc1	active: 47.3%
COc1ccc(/C=N/n2nnnc2N)cc1OC	inconclusive: -22.7%
CCC(=O)Nc1ccc2oc(-c3cccc(C)c3)nc2c1	inactive: -13.6%
COc1cccc(C(=O)Nc2cccc(NC(=O)c3ccccc3Cl)c2)c1	inconclusive: -26.9%
CC(CCc1ccccc1)NC(=O)CCCn1ncn2c(cc3occc32)c1=O (stereo not given)	inactive: 2%
Cn1c(Oc2ccncc2)nc2cc(-c3ccsc3)sc2c1=O	inactive: 7.9%
COc1ccc(-n2nc(C(=O)NCC(=O)NCCC3=CCCCC3)c3ccccc3c2=O)cc1OC	inactive: -10.2%
COc1ccc(C(=O)/C=C/c2cn(CC(O)CN3CCN(C)CC3)c3ccccc23)cc1OC (stereo not given)	inconclusive: -73.9%
NC(=S)N/N=C1\CC(c2ccc3c(c2)OCCCO3)Oc2ccc(F)cc21 (stereo not given)	inconclusive: 28.9%
Cc1ccc(C)c(NC(=O)CN(C)C(=O)c2ccc(-c3cccc(C(F)(F)F)c3)o2)c1	inconclusive: -5%
CSc1ccc(/C=N/NC(=O)c2cccs2)cc1	active: 45.2%
O=C(O)COc1c(F)c(F)c(C(F)(F)F)c(F)c1F	inconclusive: 9.4%
COc1ccccc1N1C(=O)c2ccccc2NC1c1ccncc1 (stereo not given)	inconclusive: 10.6%
COc1ccc(C(=O)N2CCN(Cc3cc(OC)ccc3OC)CC2)cc1	inconclusive: -10.3%
Cc1ccc(C(=O)N/N=C\c2ccc3c(c2)OCO3)cn1	inactive: 2.6%
CCC1(C)Cc2c(sc3[nH]c(=O)[nH]c(=O)c23)CS1 (stereo not given)	inconclusive: 18.1%
COc1ccccc1C(=O)N1CCC(N2CCN(c3ccccc3)CC2)CC1	inconclusive: -22%
Cc1ccccc1-n1nnnc1Sc1nnnn1-c1ccccc1	inactive: -7.3%
CN(C)S(=O)(=O)c1cc(NC(=O)CN2CCCc3ccccc32)ccc1Cl	inconclusive: 0.4%
CCc1ccc(C(=O)NNc2ccc(S(N)(=O)=O)cc2)cc1	inconclusive: 21%

6 of these compounds in another layout.

| SMILES | inhibition |
| --- | --- |
| Cc1ccc(NC(=O)C2C3CCC(O3)C2C(=O)O)c(Br)c1 (stereo not given) | inconclusive: -0.5% |
| CCN(CC(=O)NCC1CCCO1)S(=O)(=O)c1ccc2ccccc2c1 (stereo not given) | inconclusive: 14.7% |
| CCC(=O)Nc1ccc2oc(-c3cccc(C)c3)nc2c1 | inactive: -13.6% |
| COc1ccc(-n2nc(C(=O)NCC(=O)NCCC3=CCCCC3)c3ccccc3c2=O)cc1OC | inactive: -10.2% |
| COc1ccccc1N1C(=O)c2ccccc2NC1c1ccncc1 (stereo not given) | inconclusive: 10.6% |
| COc1ccc(C(=O)N2CCN(Cc3cc(OC)ccc3OC)CC2)cc1 | inconclusive: -10.3% |

The list goes on.

SMILES	inhibition
C=CCNC(=S)NCC	inconclusive: 15.4%
Cc1c(C#N)c(O)n(CCO)c(=O)c1N=Nc1ccccc1	inconclusive: 3.6%
O=c1cc2oc3cc(O)c(O)cc3c(-c3ccccc3[N+](=O)[O-])c-2cc1O	inconclusive: -72.6%
COc1ccccc1Nc1nc(C)nc2c1oc1ccccc12	inconclusive: 2.2%
CC(=O)C12CCCCC1CC1C3CC(C)C4(O)CC(=O)CCC4(C)C3CCC12C (stereo not given)	active: 35.2%
NC(=Nc1ccc(Br)cc1)c1ccccc1	inconclusive: 14.1%
CNC(=O)/C(C#N)=C/c1cc(C)n(-c2ccc(N3CCOCC3)cc2)c1C	inconclusive: -29.7%
O=C(NCC1CCCO1)C(Cc1ccccc1)N1C(=O)C2C3C=CC(C4CC34)C2C1=O (stereo not given)	inactive: -0.3%
CC1(C(=O)Nc2cnc3ccccc3c2)CCN1Cc1ccccc1OC(F)F (stereo not given)	inactive: 1.9%
Cc1ccsc1/C=N/Nc1ccc(C(=O)O)cc1	inconclusive: -26.2%
COc1ccc(C(=O)/C=C2/C(=O)Nc3ccccc32)c(OC)c1	inconclusive: -10.7%
Cc1cc(C2C(=O)c3ccccc3C2=O)c(C)c(C)c1C	inconclusive: -0.5%
CCOC(=O)c1sc(SC)c2c1CCC/C2=N/OC	inconclusive: -1.1%
CNS(=O)(=O)c1cc(Br)ccc1S(=O)c1ccccc1C(=O)O (stereo not given)	inconclusive: 16.1%
CCCC(=O)Nc1ccc2nc(C)n(Cc3ccccc3Cl)c(=O)c2c1	inconclusive: -14.8%
CCOC(=O)C1=C(COC(=O)/C=C/c2cccc(F)c2)NC(=O)NC1C (stereo not given)	inactive: 3.2%
CNC(=O)C[C@H]1C(=O)N(Cc2ccccc2)C[C@@H]1C	inactive: 4%
O=C(C1CC(=O)N(c2ccccc2)C1)N1CCCCCC1 (stereo not given)	inactive: 9.6%
CCc1c(C(=O)Nc2ccc(C)c(C)c2)[nH]c(C)c1C(C)=O	inconclusive: -5.2%
Cn1c2ccc(Cl)cc2c2nc3ccccc3nc21	inactive: 17.8%
Cc1nn(-c2ccc(Cl)cc2)c(NC(=O)C(C)C)c(-c2ccccc2)c1=O	inconclusive: -51.1%
O=C(Cc1cccc(C(F)(F)F)c1)NCc1ccc(Cl)cc1	inactive: 0.2%
CCCNC(=S)N1CCC(C(=O)c2ccc(OC)cc2)CC1	inactive: -0.7%
COc1ccccc1Nc1nnc(SCC(=O)N2CCCC2)s1	inactive: 0.6%

SMILES	inhibition
O=C(c1ccccc1[N+](=O)[O-])N1CCN(c2ccc(N3CCOCC3)nn2)CC1	inconclusive: 1.4%
CC(=O)CC(C)(C)Nc1nc2ccc([N+](=O)[O-])cc2o1	inconclusive: -38.2%
Cc1ccnn1CC(=O)N/N=C/c1c[nH]c2ccccc12	inconclusive: -35.6%
O=C(CC(Cc1ccccc1)C(=O)O)Nc1ccc(F)cc1 (stereo not given)	inconclusive: -7.3%
Cc1nc(N)ncc1Sc1ccccc1	inconclusive: 7.5%
Fc1cc(Cl)c(OCc2noc(-c3ccsc3)n2)c(Cl)c1	inconclusive: -63.1%
Cn1nc(C(F)(F)F)c(-c2ccccc2)c1NC(=O)c1ccco1	inconclusive: -4.1%
CSc1cccc(NC(=S)NN(C)C)c1	inconclusive: -17.7%
c1ccc(CCNCc2cccs2)cc1	inconclusive: -2.7%
CCc1cccc(C)c1NC(=O)C1C2CCC(O2)C1C(=O)O (stereo not given)	inconclusive: -54.3%
O=Cc1c(Nc2ccccc2Cl)nc2ccccn2c1=O	inconclusive: -14.3%
O=C1NC2(CCCC2)N=C1c1ccc(Cl)cc1	inactive: -2.4%
COc1ccc(OC)c(NC(=O)Cc2cccs2)c1	inconclusive: -2.2%
COc1ccc(C(CNC(=O)CNS(=O)(=O)c2ccc(NC(C)=O)cc2)N2CCOCC2)cc1 (stereo not given)	inactive: -4.5%
O=C(NCCCn1ccnc1)C(=O)NCC1OCCN1S(=O)(=O)c1ccc(Cl)cc1 (stereo not given)	inactive: -15.7%
Cc1cc(/C(N)=N/OC(=O)Nc2ccc(Cl)cc2)no1	inconclusive: -4.4%
Cc1ccc(N2C(=O)CC(=O)NC2=O)cc1Cl	inconclusive: 32.4%
CCCCCCCCn1c(=O)c(C(=O)OC)c(N)c2ccccc21	inconclusive: 0.2%
Cc1cc(C)nc(NC(=O)c2cccc(Br)c2)n1	inconclusive: -6.1%
CCN1CCN(c2nc(-c3ccc(F)cc3)cc(=O)[nH]2)CC1	inconclusive: 4.3%
O=C(Nc1scc(-c2ccccc2)c1C(=O)O)c1ccc(F)cc1	inconclusive: 30.3%
Cn1ccnc1SCC(=O)c1ccc(F)cc1	inconclusive: 32.3%
O=C1NN(c2ccc(Br)cc2)C(=O)/C1=C\c1ccc(O)cc1O	inconclusive: 38.1%
